Among all 53,000 sequences or so, about 3,700 (7%) were called active.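 Rule for the calls: active = gene knockdowns whose robust z-score for IL-1 alpha signal is at least 2 or at most -2, so actives lie on both sides; inactive = the rest.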 Some of the results follow.

This assay can be described thus: Components of the Cytosolic LPS Sensing Pathway: Gene Identification via Genome-wide siRNA Screen.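 Note: robust z of the log signal after scaling to non-targeting control siRNA wells of the plate.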 Conditions: RAW264.7 macrophages, IL-1a HTRF, actives lie on both sides, screened at 100 nM (by protocol), cells primed 5 h with Pam3CSK4 first. A digest of the protocol:
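IL-1a HTRF of supernatants after 24 hour LipidA transfection of Pam3CSK4-primed (5 hours) RAW264.7 cells, 48h post-siRNA transfection (100 nM). Scores: percent of plate negative-control median, then log-based robust z-score.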
For CCUGCCAUAGUUAGUUUUUTT against Khdc1a, the z-score is active: 7.91.

Consider GCUCUAAGUUUCCUCAUGGTT against Pkig, for which the z-score was inactive: -0.0305.

Consider GGCAUCUUCGUCUUCAUGCTT against Rnf122, for which the z-score was inactive: 0.548.

In the case of GGUCCUAUUUCGGAGCUUUTT against Tnfsf14, the z-score was inactive: 0.365.

With “GCCUUGCAUGACAGUUGUCTT against 2210016L21Rik”, the z-score was inactive: -1.1.

In the case of GGUAUGAUGCACUUUCUGATT against Zhx1, the z-score is inactive: -1.12.

GGAAAAGUUCAGAGCUUAUTT against Trmt1l: the z-score was inactive: -1.99.

For “GCCAUAGGAGUGAUUGGAUTT against E130018O15Rik”, the z-score was inactive: -1.66.

Turning to CGUGGUGAUUAUGCUUCUATT against Rab37, the z-score is inactive: -0.00686.

With GCGUGGAGAACCGUUAAUCTT against Shroom3, the z-score was inactive: 0.845.

Turning to GGUGGACUCUGACAUAACATT against Iigp1, the z-score was inactive: 1.55.

Consider CCAACAAUCCGUAUCGACCTT against Tmem202, for which the z-score was inactive: 0.384.

GGAGAGUAUCUGAAGUUUCTT against Jak2: the z-score was inactive: 1.8.

Turning to GGAGGUAGAGGAGUUGGAGTT against Zyx, the z-score was inactive: 0.652.

For the sequence GCAAGUGACGGUUUAUCUGTT against Las1l, the z-score is inactive: -1.68.

Take GCAUAUUGGAACUACUGGGTT against Olfr986: the z-score is inactive: 0.245.

GCCACAGGAUGCUAGCAAATT against Bex2: the z-score was inactive: 0.282.

Take GGCUCACAGUUACCAUCUCTT against Lipe: the z-score was inactive: -1.2.

For the sequence CCUCCACUUACUUUGGGUGTT against Cic, the z-score was inactive: 0.395.

Consider GCCACAAGAUACCAUCAGATT against Bex1, for which the z-score was inactive: -1.66.

Take GGUACACUAUACUUACAUATT against Clec2i: the z-score is inactive: -0.654.

In the case of CGGAUGCACUUCUCCAAAATT against Tram1, the z-score is inactive: 0.234.

Turning to GGCAAAAGCGAAGAAUUUATT against E2f5, the z-score is active: 2.69.

Regarding GGGAACGUACAUUUCUCAATT against Il18r1, the z-score is inactive: 0.27.

CCUGAAAGAUCCAGAAGUATT against Dppa5a: the z-score was inactive: -1.62.

As to CCUUAGGAAACGAUCUUCATT against Ints7, the z-score was inactive: 0.658.

As for GCUAAAGCCAAAAACUUACTT against AB124611, the z-score is inactive: -0.613.

Consider CGCAUUCCGAUCUACGAGATT against Cartpt, for which the z-score was inactive: 0.252.

For GGAAAGCAAAUCAAUGCAATT against Gldn, the z-score was inactive: 0.841.

With CGAUCCAUGUUGUAAGCGCTT against Adam39, the z-score is inactive: 0.347.

“CCCAAAUCUGGUUCUCAAGTT against A630001O12Rik”: the z-score was inactive: 0.958.

Regarding CGUUCAUGUUGUAAGUAUCTT against Olfr1196, the z-score is inactive: 0.461.

Consider GGGACCAGAUAGAAAUUAUTT against Arhgef25, for which the z-score is inactive: 0.414.

For “GGGCAAGAACAACUCACUUTT against 4933404G15Rik”, the z-score is active: -2.93.

Turning to GGCACCGCUAUUCAGAAUUTT against Fgf23, the z-score was inactive: 0.755.

Regarding GGAACUCCUUAAUUGAACATT against Gfm2, the z-score is inactive: 0.154.

On to GCCCUCCAACCUCGAUAACTT against Shisa7, for which the z-score was active: 2.9.

Consider GGAAGACACAAGAAACAUCTT against Slc15a5, for which the z-score was inactive: -1.49.

As for GGGUCAGUCCUGGUUUUAUTT against Sh3bp5l, the z-score is inactive: 1.27.

For GCCGCUUUAAGAUUCCCACTT against Pde1b, the z-score was inactive: -0.416.

Turning to GGAACUCUUUCUUCCAUGUTT against Olfr1495, the z-score is inactive: 0.505.

In the case of CCCGUCCUGCUAAAUGGUGTT against Usp42, the z-score is inactive: -1.26.

For GGAUGAUGGUGUCUACUCUTT against Fibcd1, the z-score is inactive: -1.26.

Take GCUUUGGUGCACUUGCUUUTT against Akr1c13: the z-score was active: 2.2.

Take CCCUCCUCUGUUGGAUCUUTT against Olfr912: the z-score was inactive: 0.365.

Turning to UUAAGCCGCUUUUGAAGCUTT against Olfr1200, the z-score is inactive: 0.812.

As to GGAAACUGGAAACAAAACATT against Nat10, the z-score was inactive: 0.52.

With GGAUCAUGCAGACAUGCUGTT against Ggcx, the z-score was inactive: -0.278.

As to “GCAGAUGACCAUUGGUUAATT against 2610301B20Rik”, the z-score is inactive: 0.979.

For GGUACGGACCCACAUUCAATT against Wscd2, the z-score was inactive: 1.47.

Regarding GCCCUUUGGAUAACAGUGATT against Sufu, the z-score is inactive: -0.13.

With GGAGAUUAUCACAACUAUUTT against Sash3, the z-score is inactive: 0.845.

Turning to GGUUGGAGUUGAUUUUAAUTT against Zmym1, the z-score is inactive: -0.189.

On to CCUAGAUUCUGAAUUCGAATT against Pdzd8, for which the z-score is inactive: -1.09.

Take GGAGAUCUGUGAUGAGGUGTT against Nudt22: the z-score was active: 2.07.

As for GCAGUCACUAAAUUGGAAATT against Eif3j1, the z-score is inactive: 1.36.

Regarding GGUUACCUGAGGUCAGUAGTT against Irgm1, the z-score was inactive: -1.54.

Take GGUCCUGAACCAGUUAGAGTT against Myo19: the z-score was inactive: 0.159.

As to GUUUGAGGACUUGGAGGUGTT against Znrf4, the z-score is inactive: 1.34.

Consider GGACAAUGUGCAUUCUCACTT against Tada1, for which the z-score was inactive: -0.682.

Consider “GGUGCUGAUGGGAGAUAGUTT against 1700010H22Rik”, for which the z-score was inactive: -0.851.

For the sequence GAAGAUCCACUUCAUCGCCTT against Psmb10, the z-score is inactive: 1.24.

With GGAAUAAGGACAUAAAGAATT against Olfr248, the z-score was inactive: -1.25.

As to GGAAUACGAAGAGAUUAUATT against Zw10, the z-score is inactive: 0.65.

As to CCACUUAAAAUUCAUUCCUTT against Arl6ip1, the z-score was inactive: -0.21.

GGAACUUAUCCUUCUUAGATT against Olfr713: the z-score was inactive: 0.259.

Regarding GGUCCCAGAAAGUAGGCAUTT against Prss22, the z-score was inactive: 0.179.

For the sequence CCUGCGCUUCUGACUAUCUTT against Dcbld1, the z-score was inactive: 0.18.

In the case of CCCUUGCUAGUCCUUCUAUTT against Bora, the z-score was inactive: -0.65.

With GGUAAAUGAGAUCAACUUCTT against Dvl3, the z-score was inactive: -0.225.

Turning to CCAUAUGUGCUCACCUUUATT against Marveld2, the z-score is inactive: -0.641.

Turning to AUCGUGUUUGCUGUAUUUGTT against Olfr1258, the z-score is inactive: 0.33.

Regarding GGUAGUCUCUGCCACCAAUTT against Mrps11, the z-score is inactive: 0.356.

GCACAGUGGUAAUUCUUUATT against Snapc3: the z-score was inactive: 0.026.

Take CGGAGUCACGCACAACUUCTT against Arsg: the z-score was inactive: -0.132.

As to GGUCGUGUUCGAGCAAACCTT against Tpi1, the z-score is inactive: -0.725.

CGUGUAGAUUACAAGAAUGTT against Mrps18c: the z-score was inactive: 1.97.

GGCUUUAAGGCUAGCAGUUTT against Pex11a: the z-score is inactive: -0.777.

With GGAAUUUCAAAGAGACAAATT against Cyfip1, the z-score is inactive: -0.423.

Regarding CGCAUUUCGAAUAAAGACATT against Mettl22, the z-score was inactive: -0.546.

With GCGUGAUCAUUGAUGUGGATT against Slc5a7, the z-score is inactive: 0.364.

For the sequence GGGUCCAGUUUAAGACAUATT against Lypla2, the z-score was inactive: 0.0279.

With GCAACUCAAUGACCUGAAATT against Ifnab, the z-score is inactive: -1.83.

Turning to GCGAAUAAACCACUUGUUGTT against Pum2, the z-score was inactive: 0.184.

For the sequence CGCCAGAAAGCUUCUAUGATT against Gucy2c, the z-score was inactive: -0.972.

Take GGCUGAGAAGACUUUCAGUTT against Trappc4: the z-score was inactive: 0.36.

Turning to GCAUCAAAUUUUGAUAAGCTT against Wapl, the z-score was inactive: -0.277.

For GCUAUCGGACUGUGUGCUGTT against Rpl41, the z-score is inactive: -0.243.

With GGAGAUGAAGCUCUGGAUATT against Spock2, the z-score was inactive: 0.132.

On to GGACGAAAAGAAGUGUUUCTT against Lamb2, for which the z-score is inactive: -0.103.

For GGAAAUGUUUACCUGCCAUTT against Zfp512, the z-score is active: 2.32.

GGUAAAAAGUACAAGUGGGTT against Slc17a5: the z-score is inactive: -0.909.

Regarding GCCCGGUCCUUUACUACAUTT against Sdk1, the z-score was inactive: 0.595.

In the case of GGUUUUGAGUGAGAAAUGGTT against Plekhb2, the z-score is inactive: -0.414.

As to GGUUCAGAUGGGAAAAAGGTT against Khdrbs2, the z-score was active: -2.41.

In the case of GCAGAUGUAAAUAGCAAAATT against Apc, the z-score was inactive: 0.955.

As for GAAAACCAGCAUAAAGUCUTT against Lcorl, the z-score is inactive: 1.13.

With GGCAUUGGAAUAAAAUUUGTT against Rfk, the z-score was inactive: 0.267.

Regarding GGAACCUAUUGCUGUUUUATT against Map2k3, the z-score was inactive: -0.756.

For the sequence GGAGGAGAGGUACAAGAUGTT against Pcyt2, the z-score was inactive: -0.804.

In the case of GGAUCUACGUAGCAUUUCATT against Mis12, the z-score is inactive: 0.237.

Turning to GGGAUUUGUUACCCUCCUCTT against B9d1, the z-score was inactive: 0.267.

On to GGCCAGUUUGACAUUCCUGTT against Mdh1b, for which the z-score is inactive: 0.000172.

For GGACUUCAAAGAUAACAACTT against Timm44, the z-score is inactive: 1.52.

As for GGACAUGUGUAAAUAAUCATT against En2, the z-score is active: 3.4.

Regarding CCCAUCUCCUCGAAUAAAUTT against Mtch1, the z-score was inactive: 0.748.

For the sequence GGAAAUGUGACCACAAAGATT against Tas2r120, the z-score is inactive: -0.772.
